In paper PMC10782615:
Results are given in words; binding and its absence hold for the method and conditions named. Binding seen in cells or lysates may run through a third protein. Binding can be weak; no strength is given. Tags and fused reporters may be left off the sequences shown.

Molecular target: PHB2 mutant lacking the N-terminal region
Experiment: co-IP; deletion mapping of SHIP2 truncates and PHB2 mutants in HEK293T cells

B1: tGFP-SHIP2 (full-length SHIP2, SHIP2-FL) (protein, UniProt O15357 1-1258)
chain: MASACGAPGPGGALGSQAPSWYHRDLSRAAAEELLARAGRDGSFLVRDSESVAGAFALCVLYQKHVHTYRILPDGEDFLAVQTSQGVPVRRFQTLGELIGLYAQPNQGLVCALLLPVEGEREPDPPDDRDASDGEDEKPPLPPRSGSTSISAPTGPSSPLPAPETPTAPAAESAPNGLSTVSHDYLKGSYGLDLEAVRGGASHLPHLTRTLATSCRRLHSEVDKVLSGLEILSKVFDQQSSPMVTRLLQQQNLPQTGEQELESLVLKLSVLKDFLSGIQKKALKALQDMSSTAPPAPQPSTRKAKTIPVQAFEVKLDVTLGDLTKIGKSQKFTLSVDVEGGRLVLLRRQRDSQEDWTTFTHDRIRQLIKSQRVQNKLGVVFEKEKDRTQRKDFIFVSARKREAFCQLLQLMKNKHSKQDEPDMISVFIGTWNMGSVPPPKNVTSWFTSKGLGKTLDEVTVTIPHDIYVFGTQENSVGDREWLDLLRGGLKELTDLDYRPIAMQSLWNIKVAVLVKPEHENRISHVSTSSVKTGIANTLGNKGAVGVSFMFNGTSFGFVNCHLTSGNEKTARRNQNYLDILRLLSLGDRQLNAFDISLRFTHLFWFGDLNYRLDMDIQEILNYISRKEFEPLLRVDQLNLEREKHKVFLRFSEEEISFPPTYRYERGSRDTYAWHKQKPTGVRTNVPSWCDRILWKSYPETHIICNSYGCTDDIVTSDHSPVFGTFEVGVTSQFISKKGLSKTSDQAYIEFESIEAIVKTASRTKFFIEFYSTCLEEYKKSFENDAQSSDNINFLKVQWSSRQLPTLKPILADIEYLQDQHLLLTVKSMDGYESYGECVVALKSMIGSTAQQFLTFLSHRGEETGNIRGSMKVRVPTERLGTRERLYEWISIDKDEAGAKSKAPSVSRGSQEPRSGSRKPAFTEASCPLSRLFEEPEKPPPTGRPPAPPRAAPREEPLTPRLKPEGAPEPEGVAAPPPKNSFNNPAYYVLEGVPHQLLPPEPPSPARAPVPSATKNKVAITVPAPQLGHHRHPRVGEGSSSDEESGGTLPPPDFPPPPLPDSAIFLPPSLDPLPGPVVRGRGGAEARGPPPPKAHPRPPLPPGPSPASTFLGEVASGDDRSCSVLQMAKTLSEVDYAPAGPARSALLPGPLELQPPRGLPSDYGRPLSFPPPRIRESIQEDLAEEAPCLQGGRASGLGEAGMSAWLRAIGLERYEEGLVHNGWDDLEFLSDITEEDLEEAGVQDPAHKRLLLDTLQLSK
binding: binds
